Taken from: PubChem BioAssay AID743456 (Peter MacCallum Cancer Centre, 2014)
This is a random part of 878 deposited reagents. Over the whole deposit, 27 (3.1%) are marked active. 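27 mimics are marked active, unlike an earlier stated count of 24; the viability threshold is described inconsistently.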 A number with no mark means an inactive call. Further read-outs or replicates are left out here. Not given: the amount of reagent.

Screen: 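miRNA mimics altering how resistant colon cancer cells respond to vorinostat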 (primary screen)
Cells: human HCT116-VR colon cancer cells, a vorinostat-resistant HCT116 line
Reagent: miRNA mimic
Timing: about 3 days from transfection to readout; drug present for the last 24 h
Challenge: vorinostat at 2.5 µM final for 24 h
Read-out: 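Per-well live-cell protease fluorescence and caspase luminescence under 2.5 µM vorinostat for 24 h, scored as robust z-scores and against mock transfection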
Reading the numbers: viability robust z-score: higher = more viable cells; caspase robust z-score: higher = more caspase activity, more apoptosis
Hit rule: 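a mimic counts as active if it lands in a lowered-viability class or a caspase-activation class; wells with too few cells without drug are left out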

hsa-miR-125b scored viability robust z-score 0.58; caspase robust z-score -1.02; viability hit class no change; caspase hit class no change. hsa-miR-340 showed viability robust z-score -0.24; caspase robust z-score -1.08; viability hit class no change; caspase hit class no change. hsa-let-7b gave viability robust z-score -0.82; caspase robust z-score -0.4; viability hit class no change; caspase hit class no change. hsa-miR-663 scored viability robust z-score 0.22; caspase robust z-score -0.59; viability hit class no change; caspase hit class no change. hsa-miR-592 scored viability robust z-score -0.2; caspase robust z-score -0.44; viability hit class no change; caspase hit class no change. For hsa-miR-17*, the entry reads viability robust z-score 0.68; caspase robust z-score -0.52; viability hit class no change; caspase hit class no change.

With hsa-miR-429, the entry reads viability robust z-score 1.41; caspase robust z-score -0.46; viability hit class no change; caspase hit class no change. hsa-miR-19a* scored viability robust z-score -0.76; caspase robust z-score 0.22; viability hit class no change; caspase hit class no change. hsa-miR-654-3p scored viability robust z-score -1.23; caspase robust z-score 1.06; viability hit class no change; caspase hit class no change. hsa-miR-1976 scored viability robust z-score -0.88; caspase robust z-score 0.74; viability hit class no change; caspase hit class no change. hsa-miR-200a scored viability robust z-score 0.07; caspase robust z-score -0.94; viability hit class no change; caspase hit class no change. With hsa-miR-10a*, the entry reads viability robust z-score -0.21; caspase robust z-score -0.56; viability hit class no change; caspase hit class no change.

hsa-miR-1274a gave viability robust z-score 0.18; caspase robust z-score -0.2; viability hit class no change; caspase hit class no change. hsa-miR-602 showed viability robust z-score 1.4; caspase robust z-score -0.18; viability hit class no change; caspase hit class no change.

Already shown: 2 of the entries above.
hsa-miR-17*: viability robust z-score = 0.68; caspase robust z-score = -0.52; viability hit class = no change; caspase hit class = no change
hsa-miR-429: viability robust z-score = 1.41; caspase robust z-score = -0.46; viability hit class = no change; caspase hit class = no change

Next entries:
hsa-miR-130a showed viability robust z-score -0.12; caspase robust z-score 1.13; viability hit class no change; caspase hit class no change. hsa-miR-1276 scored viability robust z-score -0.12; caspase robust z-score -0.15; viability hit class no change; caspase hit class no change. hsa-miR-20b* showed viability robust z-score 0.04; caspase robust z-score -0.68; viability hit class no change; caspase hit class no change. For hsa-miR-886-5p the deposit lists viability robust z-score 0.68; caspase robust z-score -0.62; viability hit class no change; caspase hit class no change. hsa-miR-1324 scored viability robust z-score 0.64; caspase robust z-score 4.29; viability hit class no change; caspase hit class no change. For hsa-miR-1202, the values are viability robust z-score 0.25; caspase robust z-score -0.55; viability hit class no change; caspase hit class no change.

With hsa-miR-100, the entry reads viability robust z-score 0.54; caspase robust z-score 0.25; viability hit class no change; caspase hit class no change. hsa-miR-548l scored viability robust z-score 1.24; caspase robust z-score -0.18; viability hit class no change; caspase hit class no change. hsa-miR-1915 scored viability robust z-score 1.14; caspase robust z-score -0.44; viability hit class no change; caspase hit class no change.
